PubChem BioAssay AID686943, Drosophila RNAi Screening Center | 2013

- Screen: 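Search across the genome for regulators of signalling from receptor tyrosine kinase to ERK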 (primary screen)
- System: Drosophila S2R+ haemocyte-like cells expressing YFP-tagged ERK (Rolled)
- Knock-down reagent: long dsRNA against Drosophila genes
- Treatment: insulin stimulation versus unstimulated cells; dose and duration not given
- Measurement: 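Per-plate z-scores of phospho-ERK immunostaining normalised to YFP-tagged ERK, measured with and without insulin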
- Reading the numbers: replicate 1, z-score of dpERK with insulin and replicate 2, z-score of dpERK with insulin: higher = more active ERK per ERK-YFP after insulin; replicate 1, z-score of dpERK under basal conditions: higher = more basal active ERK per ERK-YFP
The screen tested about 23,000 reagents; below is an unselected part of those that have a named target and a result. 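Extra replicates exist only for a retested subset of genes; insulin dose and duration not given; both raised and lowered dpERK matter.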 A plus sign joins genes that one reagent is predicted to hit. Further read-outs or replicates are left out here. Not stated in the record: the amount of reagent, the time to read-out.

| predicted target | dsRNA | replicate 1, z-score of dpERK with insulin | replicate 2, z-score of dpERK with insulin | replicate 1, z-score of dpERK under basal conditions |
| --- | --- | --- | --- | --- |
| Erk7 (Extracellularly regulated kinase 7) | DRSC18127 | -0.03 | 0.93 | -0.31 |
| Erk7 (Extracellularly regulated kinase 7) | DRSC18227 | 0.14 | -0.83 | -0.62 |
| Erk7 (Extracellularly regulated kinase 7) | DRSC21895 | 0.35 | 0.31 | 0.05 |
| park + Targ3 | DRSC11617 | 0.28 | 0.18 | -0.26 |
| CG34357 | DRSC12211 | -0.24 | 0.03 | 1.94 |
| CG34357 | DRSC12238 | -0.99 | 0.38 | -0.64 |
| CG34357 | DRSC12334 | 0.58 | 0.11 | -0.07 |
| CG15365 | DRSC18038 | -2.65 | -1.75 | -2.99 |
| CG34174 | DRSC00101 | 0.47 | 0.91 | -0.98 |
| CG12134 | DRSC06109 | 0.21 | -0.03 | 1.57 |
| sug (sugarbabe) | DRSC06855 | 0.69 | -0.17 | 0.26 |
| Kebab (Kinetochore and EB1 associated basic protein) | DRSC00827 | 0.28 | 0.21 | -1.12 |
| Sema2b (Semaphorin 2b) | DRSC05609 | 0.48 | 0.37 | 0.16 |
| Sema2b (Semaphorin 2b) | DRSC05611 | 0.35 | 0.07 | -1.1 |
| Sema2b (Semaphorin 2b) | DRSC06867 | -0.61 | 0.23 | 0.03 |
| CG31457 | DRSC22935 | 0.16 | -1.14 | 0.37 |
| CG13670 | DRSC10029 | 0.25 | -0.35 | 0.86 |
| CG12096 | DRSC21692 | -0.05 | 0.18 | 0.4 |
| RhoGAP19D (Rho GTPase activating protein at 19D) | DRSC20499 | 1.99 | 2.03 | 0.93 |
| RhoGAP19D (Rho GTPase activating protein at 19D) | DRSC20500 | -0.28 | -0.3 | -0.45 |
| CG12860 | DRSC06200 | 0.55 | 0.37 | 0.11 |
| Acp53C14c (Accessory gland protein 53C14c) | DRSC05626 | -0.8 | -0.16 | 0.33 |
| w-cup (world cup) | DRSC03048 | 0.83 | 0.43 | 0.35 |
| Alp6 (Alkaline phosphatase 6) | DRSC06710 | -0.48 | -0.3 | 0.27 |
| gish (gilgamesh) | DRSC16154 | -0.82 | -2.13 | -0.3 |
| CG32206 | DRSC09602 | 0.51 | 0.45 | 0.08 |
| CG32206 | DRSC10094 | 0.72 | 1.04 | 0.01 |
| CG32206 | DRSC10095 | -0.04 | 0.23 | -0.33 |
| CG32206 | DRSC10096 | 0.29 | 0.46 | -0.3 |
| CG32206 | DRSC11080 | 0.32 | 0.18 | -0.51 |
| TfIIA-S (Transcription-factor-IIA-S) | DRSC16883 | 1.33 | -0.17 | -1.3 |
| vn (vein) | DRSC11408 | -1.16 | -0.57 | -1.04 |
| vib (vibrator) | DRSC17094 | 0.23 | -0.9 | -1.38 |
| CG9522 | DRSC20197 | -0.77 | 0.56 | 0.58 |
| CG11149 | DRSC02130 | -0.71 | -0.17 | 0.43 |
| CG32121 | DRSC09265 | -0.1 | -0.05 | 1.66 |
| fon (fondue) | DRSC02507 | -0.43 | 0.43 | 0.24 |
| Polr1E (RNA polymerase I subunit E) | DRSC14506 | 0.12 | 0.03 | -0.56 |
| Polr1E (RNA polymerase I subunit E) | DRSC15358 | 0 | -0.86 | -0.06 |
| CG34196 | DRSC05704 | 0.73 | 0.45 | -0.02 |
| kuk (kugelkern) | DRSC15730 | -0.63 | -0.18 | 1.04 |
| Hsp60B (Heat shock protein 60B) | DRSC00542 | 0.97 | 1.29 | -0.05 |
| CG7342 | DRSC16230 | 0.75 | -0.05 | 0.06 |
| KCNQ (KCNQ potassium channel) | DRSC06121 | 0.58 | 0.18 | 0.94 |
| KCNQ (KCNQ potassium channel) | DRSC06230 | -0.58 | -0.8 | 2.95 |
| CG33704 | DRSC03838 | -0.54 | -0.19 | 1.54 |
| Tsc1 | DRSC16890 | -0.88 | -2 | -0.26 |
| CG12362 | DRSC09884 | -0.03 | 1.06 | 0.2 |
| CG13640 | DRSC14639 | 0.25 | 0 | 0.59 |
| bin3 (bicoid-interacting protein 3) | DRSC04919 | -2.55 | -1.41 | 0.1 |
| ValRS-m (Valyl-tRNA synthetase, mitochondrial) | DRSC10535 | -0.46 | -0.31 | -0.2 |
| TwdlE (TweedleE) | DRSC02392 | 0.73 | -0.09 | 1.6 |
| CG8072 | DRSC10960 | -0.41 | -0.37 | 0.27 |
| CG6675 | DRSC03735 | 0.73 | 0.15 | 0.55 |
| l(3)neo43 (lethal (3) neo43) | DRSC14988 | 0.94 | 0.88 | -0.43 |
| Fbxl7 (F-box and leucine-rich repeat protein 7) | DRSC15553 | 1.38 | 0.39 | -0.52 |
| Gr98c (Gustatory receptor 98c) | DRSC22212 | -1.84 | 0.81 | -0.24 |
